According to patent US20040249122A1, “Cationic, amphipathic beta-sheet peptides and uses thereof” (priority 2003, published 2004):

Assay: DSC, bilayer-to-hexagonal phase transition temperature (TH) of DiPoPE
Type: physicochemical

CC[C@H](C)[C@H](NC(=O)[C@H](CCCCN)NC(=O)[C@H](C)NC(=O)CNC(=O)[C@@H](NC(=O)[C@H](CCCCN)NC(=O)[C@@H](NC(=O)[C@H](CCCCN)NC(=O)[C@H](C)NC(=O)CNC(=O)[C@@H](NC(=O)[C@H](CCCCN)NC(=O)[C@@H](NC(=O)[C@H](CCCCN)NC(=O)[C@H](C)NC(=O)CNC(=O)[C@@H](NC(=O)[C@@H](N)CCCCN)[C@@H](C)CC)[C@@H](C)CC)[C@@H](C)CC)[C@@H](C)CC)[C@@H](C)CC)C(N)=O [(KIGAKI)3-NH2, K I G A K I K I G A K I K I G A K I -NH2] (H-KIGAKIKIGAKIKIGAKI-NH2)
effect on TH of DiPoPE (in words) (DSC): negligible effect | Linear Regression: slope of TH vs. mole fraction of peptide (DiPoPE, Table 3): 157 ± 142

Where a SMILES comes first, the peptide text is derived from it.
